From the supplement of paper PMC10849652
This is one part of the list.

Chains of the proteins cited; added tags and fusions are not shown. Lines headed by an entry give the natural chain unless they say otherwise; changes in a name come on top.
UniProt Q8N6L1: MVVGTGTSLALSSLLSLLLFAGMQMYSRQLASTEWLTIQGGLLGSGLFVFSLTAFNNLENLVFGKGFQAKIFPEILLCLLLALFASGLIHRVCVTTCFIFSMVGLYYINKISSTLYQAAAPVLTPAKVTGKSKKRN
UniProt Q9Y219: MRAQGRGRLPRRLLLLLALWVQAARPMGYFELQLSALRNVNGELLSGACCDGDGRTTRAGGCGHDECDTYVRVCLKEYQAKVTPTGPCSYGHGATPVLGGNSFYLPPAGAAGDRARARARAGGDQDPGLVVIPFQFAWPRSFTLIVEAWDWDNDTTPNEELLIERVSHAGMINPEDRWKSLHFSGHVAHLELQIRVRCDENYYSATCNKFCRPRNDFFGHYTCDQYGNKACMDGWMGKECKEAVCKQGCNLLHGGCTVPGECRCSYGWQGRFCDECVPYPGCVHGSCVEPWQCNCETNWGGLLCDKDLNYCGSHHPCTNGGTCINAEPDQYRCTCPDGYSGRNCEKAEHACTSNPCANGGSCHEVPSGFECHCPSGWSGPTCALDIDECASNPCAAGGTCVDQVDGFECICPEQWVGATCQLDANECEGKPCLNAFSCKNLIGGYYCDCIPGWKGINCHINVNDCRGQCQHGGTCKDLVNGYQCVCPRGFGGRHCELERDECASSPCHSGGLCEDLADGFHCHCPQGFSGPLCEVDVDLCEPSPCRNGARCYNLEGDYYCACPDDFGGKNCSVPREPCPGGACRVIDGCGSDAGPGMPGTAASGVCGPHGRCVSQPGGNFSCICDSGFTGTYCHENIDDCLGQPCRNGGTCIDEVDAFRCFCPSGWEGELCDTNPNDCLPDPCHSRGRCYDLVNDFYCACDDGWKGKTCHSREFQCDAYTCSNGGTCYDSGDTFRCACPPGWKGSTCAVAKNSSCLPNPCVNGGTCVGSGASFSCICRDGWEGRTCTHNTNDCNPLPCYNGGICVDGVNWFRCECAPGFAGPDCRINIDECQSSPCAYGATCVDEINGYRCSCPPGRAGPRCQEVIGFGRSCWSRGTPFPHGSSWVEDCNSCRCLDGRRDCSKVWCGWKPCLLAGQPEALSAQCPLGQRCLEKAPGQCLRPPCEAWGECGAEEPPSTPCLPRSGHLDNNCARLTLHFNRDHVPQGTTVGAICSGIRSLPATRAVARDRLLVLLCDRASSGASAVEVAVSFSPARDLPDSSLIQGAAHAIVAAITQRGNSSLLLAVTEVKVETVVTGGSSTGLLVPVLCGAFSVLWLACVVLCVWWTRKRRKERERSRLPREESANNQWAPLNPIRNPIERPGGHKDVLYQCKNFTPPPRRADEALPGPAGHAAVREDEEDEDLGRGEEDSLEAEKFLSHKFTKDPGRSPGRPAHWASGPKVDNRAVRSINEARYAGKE
UniProt P57682: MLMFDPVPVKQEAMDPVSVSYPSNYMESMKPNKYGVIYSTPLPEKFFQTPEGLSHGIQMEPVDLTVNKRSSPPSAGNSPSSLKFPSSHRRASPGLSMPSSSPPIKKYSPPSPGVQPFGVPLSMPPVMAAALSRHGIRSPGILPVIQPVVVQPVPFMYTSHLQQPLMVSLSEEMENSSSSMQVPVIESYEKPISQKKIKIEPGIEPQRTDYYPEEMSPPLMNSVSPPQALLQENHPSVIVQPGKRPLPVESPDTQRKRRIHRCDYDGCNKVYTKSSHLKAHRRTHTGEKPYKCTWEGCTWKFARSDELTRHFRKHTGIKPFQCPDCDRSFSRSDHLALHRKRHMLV
UniProt O00629, whole entry, looked up: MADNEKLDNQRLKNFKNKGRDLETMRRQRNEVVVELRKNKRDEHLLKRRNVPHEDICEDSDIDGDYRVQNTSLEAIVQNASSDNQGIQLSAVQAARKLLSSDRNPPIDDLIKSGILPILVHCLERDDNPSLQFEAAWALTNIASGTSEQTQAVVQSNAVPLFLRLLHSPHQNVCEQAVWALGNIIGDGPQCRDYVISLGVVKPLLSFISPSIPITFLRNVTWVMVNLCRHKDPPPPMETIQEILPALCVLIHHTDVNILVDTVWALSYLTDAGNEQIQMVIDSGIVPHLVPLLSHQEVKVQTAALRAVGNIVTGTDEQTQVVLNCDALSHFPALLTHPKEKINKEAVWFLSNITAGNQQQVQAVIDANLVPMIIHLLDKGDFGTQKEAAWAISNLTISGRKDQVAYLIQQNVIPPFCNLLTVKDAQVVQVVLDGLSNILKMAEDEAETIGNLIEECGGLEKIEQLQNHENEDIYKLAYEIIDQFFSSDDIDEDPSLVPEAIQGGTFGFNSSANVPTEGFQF
UniProt P52294, whole entry, looked up: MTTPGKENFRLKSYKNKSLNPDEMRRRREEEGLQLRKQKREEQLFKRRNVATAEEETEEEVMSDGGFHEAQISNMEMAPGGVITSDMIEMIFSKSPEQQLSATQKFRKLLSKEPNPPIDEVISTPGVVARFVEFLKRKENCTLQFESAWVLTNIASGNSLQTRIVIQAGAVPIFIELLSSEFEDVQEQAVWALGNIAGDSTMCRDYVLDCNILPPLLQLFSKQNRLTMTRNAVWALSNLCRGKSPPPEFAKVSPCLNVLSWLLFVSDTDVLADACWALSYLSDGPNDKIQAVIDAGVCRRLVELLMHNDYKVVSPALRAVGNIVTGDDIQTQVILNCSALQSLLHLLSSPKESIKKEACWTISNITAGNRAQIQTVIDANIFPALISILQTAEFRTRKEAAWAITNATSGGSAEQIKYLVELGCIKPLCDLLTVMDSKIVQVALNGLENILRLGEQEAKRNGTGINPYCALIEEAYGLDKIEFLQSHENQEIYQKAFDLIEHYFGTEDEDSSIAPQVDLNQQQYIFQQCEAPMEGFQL
UniProt Q9H0B6: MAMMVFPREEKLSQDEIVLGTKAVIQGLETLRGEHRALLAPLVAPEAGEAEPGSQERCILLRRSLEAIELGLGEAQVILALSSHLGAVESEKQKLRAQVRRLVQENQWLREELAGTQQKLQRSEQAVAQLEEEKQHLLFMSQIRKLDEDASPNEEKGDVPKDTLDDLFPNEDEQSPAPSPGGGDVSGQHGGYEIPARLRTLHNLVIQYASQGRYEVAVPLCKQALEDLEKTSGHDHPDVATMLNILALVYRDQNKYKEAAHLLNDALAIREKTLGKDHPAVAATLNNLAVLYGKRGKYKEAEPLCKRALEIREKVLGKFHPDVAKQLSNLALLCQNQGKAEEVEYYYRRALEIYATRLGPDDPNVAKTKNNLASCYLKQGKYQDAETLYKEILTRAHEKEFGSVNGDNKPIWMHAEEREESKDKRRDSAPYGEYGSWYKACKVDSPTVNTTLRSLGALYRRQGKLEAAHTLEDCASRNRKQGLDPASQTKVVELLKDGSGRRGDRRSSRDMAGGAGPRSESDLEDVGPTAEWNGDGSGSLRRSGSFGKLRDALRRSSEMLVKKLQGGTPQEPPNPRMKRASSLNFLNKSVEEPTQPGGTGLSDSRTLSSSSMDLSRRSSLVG
UniProt P24390: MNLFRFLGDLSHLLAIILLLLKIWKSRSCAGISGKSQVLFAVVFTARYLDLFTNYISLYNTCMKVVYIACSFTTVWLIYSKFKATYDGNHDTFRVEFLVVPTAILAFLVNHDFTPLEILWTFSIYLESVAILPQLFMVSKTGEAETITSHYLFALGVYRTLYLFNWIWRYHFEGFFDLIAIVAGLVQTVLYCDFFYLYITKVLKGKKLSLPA

Key:
Assay in all cases: log2 fold change, soluble protein after heating vs DMSO (PISA); higher = thermal stabilisation; K562 cells, 10 uM, 30 min; active = over 0.2 and 3.5 SD of the protein, either way, in both replicates (recomputed)
[1] = compound: CS(=O)(=O)c1ccc(-c2cnc(N)c(C(=O)Nc3ccccc3)n2)cc1
Procedure, shortened: (§1)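 K562 cells at 2×10^6 cells/mL were treated with 10 μM compound for 30 min. Aliquots were heated for 3 min across 48°C-58°C, pooled, and extracted in PBS with 0.5% NP-40 at 4°C; soluble protein was the supernatant after 21,000xg for 90 min. Soluble protein was quantified by TMTpro 16plex LC-MS/MS with channel sums equalised, and reported as log2 fold change in thermal stability against DMSO controls, with values from duplicates.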

crizotinib = compound: C[C@@H](Oc1cc(-c2cnn(C3CCNCC3)c2)cnc1N)c1c(Cl)ccc(F)c1Cl [crizotinib]
Procedure, shortened: as §1

[2] = compound: C[C@@H]1COCCN1C2=NC(=NC(=C2)C3(CC3)S(=O)(=O)C)C4=C5C=CNC5=CC=C4
Procedure, shortened: as §1

[3] = compound: C[C@H](C1=CC=C(C=C1)C(=O)NC2=C3C=CNC3=NC=C2)N
Procedure, shortened: as §1

duvelisib = compound: C[C@H](Nc1ncnc2nc[nH]c12)c1cc2cccc(Cl)c2c(=O)n1-c1ccccc1 [duvelisib]
Procedure, shortened: as §1

gandotinib = compound: Cc1cc(Nc2cc(CN3CCOCC3)c3nc(C)c(Cc4ccc(Cl)cc4F)n3n2)n[nH]1 [gandotinib]
Procedure, shortened: as §1

tozasertib = compound: Cc1cc(Nc2cc(N3CCN(C)CC3)nc(Sc3ccc(NC(=O)C4CC4)cc3)n2)n[nH]1 [tozasertib]
Procedure, shortened: as §1

[4] = compound: Cc1cc(SCc2sc(-c3ccc(C(F)(F)F)cc3)nc2C)ccc1OCC(=O)O
Procedure, shortened: as §1

doramapimod = compound: Cc1ccc(-n2nc(C(C)(C)C)cc2NC(=O)Nc2ccc(OCCN3CCOCC3)c3ccccc23)cc1 [doramapimod]
Procedure, shortened: as §1

ispinesib = compound: Cc1ccc(C(=O)N(CCCN)[C@@H](c2nc3cc(Cl)ccc3c(=O)n2Cc2ccccc2)C(C)C)cc1 [ispinesib]
Procedure, shortened: as §1

bafetinib = compound: Cc1ccc(NC(=O)c2ccc(CN3CC[C@H](N(C)C)C3)c(C(F)(F)F)c2)cc1Nc1nccc(-c2cncnc2)n1 [bafetinib]
Procedure, shortened: as §1

[5] = compound: Cc1cccc(CC(=O)N2CCc3c2ccc(-c2cn(C)c4ncnc(N)c24)c3F)n1
Procedure, shortened: as §1

nilotinib = compound: Cc1cn(-c2cc(NC(=O)c3ccc(C)c(Nc4nccc(-c5cccnc5)n4)c3)cc(C(F)(F)F)c2)cn1 [nilotinib]
Procedure, shortened: as §1

[6] = compound: Cc1nc(Nc2n[nH]c3c2CN(C(=O)N[C@H](CN(C)C)c2ccccc2)C3(C)C)c2sccc2n1
Procedure, shortened: as §1

dasatinib = compound: Cc1nc(Nc2ncc(C(=O)Nc3c(C)cccc3Cl)s2)cc(N2CCN(CCO)CC2)n1 [dasatinib]
Procedure, shortened: as §1

[7] = compound: Cc1ncc(-c2ccnc(Nc3ccc(S(C)(=O)=O)cc3)n2)n1C(C)C
Procedure, shortened: as §1

[8] = compound: Cn1cc(-c2ccc3c(c2)CCN3C(=O)Cc2cccc(C(F)(F)F)c2)c2c(N)ncnc21
Procedure, shortened: as §1

[9] = compound: Cn1cc(-c2ccc3nnc(C(F)(F)c4ccc5ncccc5c4)n3n2)cn1
Procedure, shortened: as §1

mubritinib = compound: FC(F)(F)c1ccc(/C=C/c2nc(COc3ccc(CCCCn4ccnn4)cc3)co2)cc1 [mubritinib]
Procedure, shortened: as §1

tipifarnib = compound: Cn1cncc1[C@@](N)(c1ccc(Cl)cc1)c1ccc2c(c1)c(-c1cccc(Cl)c1)cc(=O)n2C [tipifarnib]
Procedure, shortened: as §1

Measured: log2 fold change

KRTCAP2 isoform 2 (UniProt Q8N6L1)
inactive: [1] -0.013 | crizotinib 0.032 | [2] -0.008 | [3] -0.287 | duvelisib -0.137 | gandotinib -0.039 | tozasertib -0.135 | [4] -0.037 | doramapimod 0.017 | ispinesib -0.229 | bafetinib -0.12 | [5] -0.182 | nilotinib -0.064 | [6] -0.007 | dasatinib 0.069 | [7] 0.01 | [8] 0.069 | [9] 0.018 | mubritinib -0.009

JAG2 (UniProt Q9Y219)
inactive: [1] -0.009 | crizotinib 0.02 | [2] -0.145 | [3] -0.104 | duvelisib 0.009 | tozasertib -0.004 | [4] 0.022 | doramapimod 0.037 | ispinesib -0.041 | bafetinib -0.187 | nilotinib 0.056 | [6] -0.166 | dasatinib -0.067 | [7] 0.049 | [8] 0.026 | [9] 0.032 | tipifarnib -0.024

KLF3 (UniProt P57682)
inactive: [1] -0.032 | crizotinib 0.021 | [2] -0.034 | [3] 0.227 | duvelisib -0.293 | gandotinib 0.029 | tozasertib 0.017 | [4] 0.109 | doramapimod 0.027 | ispinesib -0.05 | bafetinib -0.036 | [5] 0.048 | nilotinib -0.039 | [6] 0.013 | dasatinib 0.03 | [7] -0.034 | [8] 0.078 | [9] 0.047 | tipifarnib 0.035 | mubritinib 0.035

KPNA4 (UniProt O00629)
inactive: [1] 0.004 | crizotinib -0.003 | [2] 0.024 | [3] -0.073 | gandotinib -0.032 | [4] 0.014 | doramapimod -0.046 | ispinesib 0.037 | bafetinib -0.111 | [5] 0.021 | nilotinib 0.04 | [6] -0.155 | dasatinib -0.017 | [7] -0.033 | [8] 0.021 | [9] 0.032 | tipifarnib -0.004 | mubritinib 0.093

KRAS isoform 2 (UniProt P01116)
inactive: [1] 0.03 | crizotinib 0.024 | [2] -0.016 | [3] 0.019 | gandotinib -0.05 | [4] -0.018 | doramapimod -0.019 | ispinesib -0.09 | bafetinib 0.008 | [5] -0.115 | nilotinib -0.123 | [6] 0.074 | dasatinib -0.018 | [7] -0.041 | [8] 0.064 | [9] -0.08 | tipifarnib 0.087 | mubritinib 0.041

KDM1A isoform 2 (UniProt O60341)
inactive: [1] -0.047 | crizotinib -0.036 | [2] 0.018 | [3] -0.011 | gandotinib 0.014 | [4] 0.061 | doramapimod -0.028 | ispinesib -0.057 | bafetinib 0.007 | [5] 0.014 | nilotinib -0.078 | [6] -0.059 | dasatinib -0.07 | [7] -0.001 | [8] -0.002 | [9] -0.011 | tipifarnib -0.108 | mubritinib 0.095

KPNA1 (UniProt P52294)
inactive: [1] -0.021 | crizotinib -0.169 | [2] -0.029 | [3] 0.084 | gandotinib 0.01 | [4] -0.008 | doramapimod 0.062 | ispinesib -0.012 | bafetinib 0 | [5] -0.02 | nilotinib -0.103 | [6] -0.074 | dasatinib 0.003 | [7] 0.047 | [8] -0.089 | [9] -0.008 | tipifarnib -0.088 | mubritinib -0.06

KLC2 (UniProt Q9H0B6)
inactive: [1] 0.012 | crizotinib -0.131 | [2] 0.008 | [3] -0.007 | gandotinib -0.079 | [4] 0.047 | doramapimod -0.002 | ispinesib -0.062 | bafetinib 0.013 | [5] 0.018 | nilotinib -0.049 | dasatinib -0.07 | [7] 0.025 | [8] 0.05 | [9] 0.046 | tipifarnib 0.031 | mubritinib 0.009
active: [6] -0.388

KDELR1 (UniProt P24390)
inactive: [1] 0.126 | crizotinib 0.063 | [2] 0.222 | duvelisib -0.044 | tozasertib 0.441 | [4] -0.026 | doramapimod -0.055 | ispinesib 0.066 | bafetinib -0.102 | nilotinib 0.038 | [6] -0.025 | dasatinib -0.436 | [7] -0.342 | [9] 0.172 | tipifarnib 0.132 | mubritinib -0.007
